Experimental data from patent publication US20060204512A1.
No constants are given. Whether binding was seen depends on the method and setting. Some binding calls cover weakened binding; strength is not graded here. For some assays here: Sequences can lack the tags named with a protein.

Sequences of proteins named here, by UniProt entry; tags and fusion partners are left off. A change or cut given only in a name is not applied to a line headed by its entry. Residues count along the entry.
UniProt P52799, residues 28-229: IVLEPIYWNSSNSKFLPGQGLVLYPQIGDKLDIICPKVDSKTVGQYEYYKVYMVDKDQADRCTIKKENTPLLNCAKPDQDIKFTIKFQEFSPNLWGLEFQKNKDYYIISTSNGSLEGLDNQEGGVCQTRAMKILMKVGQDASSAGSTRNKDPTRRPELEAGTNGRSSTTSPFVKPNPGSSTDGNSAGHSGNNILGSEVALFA
UniProt P02768: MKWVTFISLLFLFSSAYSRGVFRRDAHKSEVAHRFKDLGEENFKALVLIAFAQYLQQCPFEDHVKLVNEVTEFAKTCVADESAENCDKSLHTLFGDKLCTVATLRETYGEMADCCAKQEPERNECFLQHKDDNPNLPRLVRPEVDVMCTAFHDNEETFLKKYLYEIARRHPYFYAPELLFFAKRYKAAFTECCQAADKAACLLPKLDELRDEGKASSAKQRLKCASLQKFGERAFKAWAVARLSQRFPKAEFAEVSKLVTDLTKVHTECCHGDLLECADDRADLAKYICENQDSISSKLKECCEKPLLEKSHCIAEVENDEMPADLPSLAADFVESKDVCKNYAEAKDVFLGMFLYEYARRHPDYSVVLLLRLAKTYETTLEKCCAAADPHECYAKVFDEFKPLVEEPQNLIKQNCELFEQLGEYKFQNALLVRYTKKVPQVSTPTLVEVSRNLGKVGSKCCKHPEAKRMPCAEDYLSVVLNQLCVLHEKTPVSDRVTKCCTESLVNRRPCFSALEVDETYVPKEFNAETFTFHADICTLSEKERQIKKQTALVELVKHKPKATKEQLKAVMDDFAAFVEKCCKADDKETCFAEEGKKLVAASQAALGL

Assays:
[1] = target: T1, B4EC-AP reagent (protein fusion of EphB4 ectodomain with placental alkaline phosphatase) (UniProt P54760); assay: biochemical assays; format for B2EC not described
T1 sequence (looked up): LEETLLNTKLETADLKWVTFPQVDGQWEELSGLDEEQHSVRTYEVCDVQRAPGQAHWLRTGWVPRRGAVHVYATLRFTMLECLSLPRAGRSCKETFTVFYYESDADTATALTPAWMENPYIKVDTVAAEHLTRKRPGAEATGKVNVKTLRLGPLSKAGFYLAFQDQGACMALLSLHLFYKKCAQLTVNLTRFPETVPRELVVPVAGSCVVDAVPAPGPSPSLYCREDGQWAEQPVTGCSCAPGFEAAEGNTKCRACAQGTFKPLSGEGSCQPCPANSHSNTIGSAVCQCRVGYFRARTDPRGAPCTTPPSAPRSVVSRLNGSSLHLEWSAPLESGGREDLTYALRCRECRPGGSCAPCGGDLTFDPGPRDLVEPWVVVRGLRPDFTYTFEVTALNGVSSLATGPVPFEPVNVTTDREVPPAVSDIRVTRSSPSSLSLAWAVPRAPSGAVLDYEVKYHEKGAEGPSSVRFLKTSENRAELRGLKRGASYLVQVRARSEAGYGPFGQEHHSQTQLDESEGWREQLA

[2] = target: B2EC-AP reagent (protein fusion of Ephrin B2 ectodomain with placental alkaline phosphatase) (UniProt P52799); assay: assay not described

Row | binding [1] | binding [2] | Substance
1 | binds | – | B2EC protein (from UniProt P52799 28-225) (ligand)
2 | – | binds | EphB4 ectodomain fusion to the C-terminus of HSA (from UniProt P02768 25-609; P54760 16-539)
